Data published in patent US10954567B2, “Mutations associated with resistance to inhibitors of Bruton's Tyrosine Kinase (BTK)” (Pharmacyclics LLC, priority 2012, dated 2021).
At least one compound was matched to its structure with a doubt left.

Tested on: human BTK
Assay: Flow cytometric phosphorylation assay in HEK293T cells transfected with human BTK
Type: cell-based
Settings: HEK293T cells expressing BTK, flow cytometry

In the case of `C=CC(=O)N1CCC[C@@H](n2nc(-c3ccc(Oc4ccccc4)cc3)c3c(N)ncnc32)C1` [ibrutinib], the “phosphorylation of T202/Y204 in Erk” value is reported as “dose-dependently inhibited” and the “phosphorylation of Y551 in BTK” value is reported as “dose-dependently inhibited”.
